The supplement of paper PMC12819154, “High-throughput peptide-centric local stability assay extends protein–ligand identification to membrane proteins, tissues and bacteria” (Nature Structural & Molecular Biology, 2025)
The list shows a part of the results. Most entries show no effect beyond the scatter of the controls.

Protein sequences, listed by entry. Tags and fused reporters are not part of them. Lines headed by an entry give the natural chain unless they say otherwise; changes in a name come on top.
UniProt P11859: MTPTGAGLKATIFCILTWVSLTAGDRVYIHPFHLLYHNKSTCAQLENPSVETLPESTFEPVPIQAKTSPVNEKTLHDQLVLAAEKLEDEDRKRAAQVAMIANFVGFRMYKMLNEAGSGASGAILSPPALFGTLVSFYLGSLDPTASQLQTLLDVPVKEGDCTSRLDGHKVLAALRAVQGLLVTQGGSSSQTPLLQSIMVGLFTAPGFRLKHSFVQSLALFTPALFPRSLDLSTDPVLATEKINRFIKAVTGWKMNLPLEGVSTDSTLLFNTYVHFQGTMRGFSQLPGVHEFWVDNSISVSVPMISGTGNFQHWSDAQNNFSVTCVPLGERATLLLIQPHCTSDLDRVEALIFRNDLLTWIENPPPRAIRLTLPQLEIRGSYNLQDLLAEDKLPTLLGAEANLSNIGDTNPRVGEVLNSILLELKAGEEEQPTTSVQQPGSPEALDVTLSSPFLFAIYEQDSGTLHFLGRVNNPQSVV
UniProt P10648: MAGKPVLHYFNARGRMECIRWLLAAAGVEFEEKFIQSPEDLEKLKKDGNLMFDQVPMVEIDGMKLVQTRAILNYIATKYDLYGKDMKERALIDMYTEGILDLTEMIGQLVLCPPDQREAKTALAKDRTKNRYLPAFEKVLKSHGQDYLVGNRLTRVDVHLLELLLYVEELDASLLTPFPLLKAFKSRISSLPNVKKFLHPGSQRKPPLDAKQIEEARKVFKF
UniProt P02798: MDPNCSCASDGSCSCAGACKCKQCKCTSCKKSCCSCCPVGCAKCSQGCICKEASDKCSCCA
UniProt P12025: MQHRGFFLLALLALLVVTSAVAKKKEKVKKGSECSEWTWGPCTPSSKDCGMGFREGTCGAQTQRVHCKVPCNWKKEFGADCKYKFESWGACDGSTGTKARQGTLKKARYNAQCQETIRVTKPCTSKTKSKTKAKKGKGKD
UniProt P01029: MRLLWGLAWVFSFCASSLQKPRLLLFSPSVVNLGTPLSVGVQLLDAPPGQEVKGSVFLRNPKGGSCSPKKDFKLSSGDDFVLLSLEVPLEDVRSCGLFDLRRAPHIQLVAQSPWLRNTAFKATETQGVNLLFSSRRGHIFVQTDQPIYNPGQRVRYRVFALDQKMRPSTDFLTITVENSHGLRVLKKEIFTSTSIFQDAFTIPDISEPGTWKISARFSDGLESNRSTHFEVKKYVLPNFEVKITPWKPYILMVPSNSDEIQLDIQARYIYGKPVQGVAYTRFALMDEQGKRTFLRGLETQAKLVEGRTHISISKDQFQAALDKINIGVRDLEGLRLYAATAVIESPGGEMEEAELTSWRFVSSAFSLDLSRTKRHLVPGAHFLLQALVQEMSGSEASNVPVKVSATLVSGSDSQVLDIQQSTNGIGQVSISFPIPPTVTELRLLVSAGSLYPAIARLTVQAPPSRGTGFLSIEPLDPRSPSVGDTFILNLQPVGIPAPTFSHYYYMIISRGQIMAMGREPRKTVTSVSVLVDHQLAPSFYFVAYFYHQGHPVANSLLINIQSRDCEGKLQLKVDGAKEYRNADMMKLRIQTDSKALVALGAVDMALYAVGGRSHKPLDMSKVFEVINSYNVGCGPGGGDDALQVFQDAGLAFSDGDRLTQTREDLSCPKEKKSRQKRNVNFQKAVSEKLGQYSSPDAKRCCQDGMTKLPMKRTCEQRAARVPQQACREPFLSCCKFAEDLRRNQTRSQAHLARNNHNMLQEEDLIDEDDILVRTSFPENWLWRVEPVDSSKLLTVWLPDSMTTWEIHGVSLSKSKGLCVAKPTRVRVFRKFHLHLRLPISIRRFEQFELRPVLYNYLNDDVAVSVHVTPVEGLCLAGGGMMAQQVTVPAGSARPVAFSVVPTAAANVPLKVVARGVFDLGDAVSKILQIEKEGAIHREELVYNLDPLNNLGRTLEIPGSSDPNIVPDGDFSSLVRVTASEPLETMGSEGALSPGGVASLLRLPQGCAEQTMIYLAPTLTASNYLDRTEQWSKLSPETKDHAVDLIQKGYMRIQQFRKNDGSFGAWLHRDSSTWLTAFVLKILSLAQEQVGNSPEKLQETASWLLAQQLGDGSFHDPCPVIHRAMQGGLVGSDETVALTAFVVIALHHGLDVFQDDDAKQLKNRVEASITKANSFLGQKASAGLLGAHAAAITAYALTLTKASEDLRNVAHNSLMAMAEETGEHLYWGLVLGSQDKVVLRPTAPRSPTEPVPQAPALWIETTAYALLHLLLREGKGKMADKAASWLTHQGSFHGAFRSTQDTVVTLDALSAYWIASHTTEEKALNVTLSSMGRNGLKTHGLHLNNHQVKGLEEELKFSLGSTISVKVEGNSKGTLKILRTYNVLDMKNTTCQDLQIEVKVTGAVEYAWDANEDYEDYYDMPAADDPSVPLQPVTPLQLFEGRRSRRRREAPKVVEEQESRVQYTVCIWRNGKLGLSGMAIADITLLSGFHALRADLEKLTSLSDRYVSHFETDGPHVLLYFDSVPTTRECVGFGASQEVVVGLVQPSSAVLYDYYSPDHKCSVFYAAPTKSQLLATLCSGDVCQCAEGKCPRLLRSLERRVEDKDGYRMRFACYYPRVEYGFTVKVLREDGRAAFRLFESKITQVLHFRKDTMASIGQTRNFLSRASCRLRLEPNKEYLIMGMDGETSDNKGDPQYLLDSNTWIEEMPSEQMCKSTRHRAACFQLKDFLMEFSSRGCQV
UniProt O89114: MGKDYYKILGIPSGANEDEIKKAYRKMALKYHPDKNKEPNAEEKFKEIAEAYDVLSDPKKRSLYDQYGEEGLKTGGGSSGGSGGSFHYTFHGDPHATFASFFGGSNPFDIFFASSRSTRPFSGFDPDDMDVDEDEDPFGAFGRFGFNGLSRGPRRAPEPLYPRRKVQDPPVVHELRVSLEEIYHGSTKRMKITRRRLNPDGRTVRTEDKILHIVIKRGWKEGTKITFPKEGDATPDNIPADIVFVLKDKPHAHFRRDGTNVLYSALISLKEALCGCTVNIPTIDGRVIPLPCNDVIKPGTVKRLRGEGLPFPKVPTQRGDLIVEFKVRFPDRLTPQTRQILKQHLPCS
UniProt P0C8B4: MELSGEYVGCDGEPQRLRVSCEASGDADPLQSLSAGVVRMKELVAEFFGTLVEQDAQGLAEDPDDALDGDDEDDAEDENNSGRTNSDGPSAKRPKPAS
UniProt P09405, whole entry: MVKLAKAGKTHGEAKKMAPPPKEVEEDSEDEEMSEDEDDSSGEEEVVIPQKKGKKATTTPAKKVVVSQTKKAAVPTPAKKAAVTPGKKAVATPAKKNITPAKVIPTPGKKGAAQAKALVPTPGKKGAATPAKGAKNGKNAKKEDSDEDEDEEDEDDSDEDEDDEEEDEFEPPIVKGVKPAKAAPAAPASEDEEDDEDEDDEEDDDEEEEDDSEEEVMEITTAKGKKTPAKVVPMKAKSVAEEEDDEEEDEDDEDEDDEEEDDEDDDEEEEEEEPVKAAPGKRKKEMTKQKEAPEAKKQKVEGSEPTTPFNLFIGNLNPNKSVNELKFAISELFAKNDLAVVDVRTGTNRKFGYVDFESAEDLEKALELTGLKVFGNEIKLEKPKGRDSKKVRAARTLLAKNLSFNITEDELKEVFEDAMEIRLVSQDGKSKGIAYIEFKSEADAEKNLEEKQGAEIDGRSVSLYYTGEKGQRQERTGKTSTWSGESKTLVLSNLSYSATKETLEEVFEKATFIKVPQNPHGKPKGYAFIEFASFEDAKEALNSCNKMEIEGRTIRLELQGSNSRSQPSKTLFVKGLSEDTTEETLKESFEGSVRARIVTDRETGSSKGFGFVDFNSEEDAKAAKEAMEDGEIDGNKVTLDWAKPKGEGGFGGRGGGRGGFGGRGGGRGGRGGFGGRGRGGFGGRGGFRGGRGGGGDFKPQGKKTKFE
UniProt P0DPD9: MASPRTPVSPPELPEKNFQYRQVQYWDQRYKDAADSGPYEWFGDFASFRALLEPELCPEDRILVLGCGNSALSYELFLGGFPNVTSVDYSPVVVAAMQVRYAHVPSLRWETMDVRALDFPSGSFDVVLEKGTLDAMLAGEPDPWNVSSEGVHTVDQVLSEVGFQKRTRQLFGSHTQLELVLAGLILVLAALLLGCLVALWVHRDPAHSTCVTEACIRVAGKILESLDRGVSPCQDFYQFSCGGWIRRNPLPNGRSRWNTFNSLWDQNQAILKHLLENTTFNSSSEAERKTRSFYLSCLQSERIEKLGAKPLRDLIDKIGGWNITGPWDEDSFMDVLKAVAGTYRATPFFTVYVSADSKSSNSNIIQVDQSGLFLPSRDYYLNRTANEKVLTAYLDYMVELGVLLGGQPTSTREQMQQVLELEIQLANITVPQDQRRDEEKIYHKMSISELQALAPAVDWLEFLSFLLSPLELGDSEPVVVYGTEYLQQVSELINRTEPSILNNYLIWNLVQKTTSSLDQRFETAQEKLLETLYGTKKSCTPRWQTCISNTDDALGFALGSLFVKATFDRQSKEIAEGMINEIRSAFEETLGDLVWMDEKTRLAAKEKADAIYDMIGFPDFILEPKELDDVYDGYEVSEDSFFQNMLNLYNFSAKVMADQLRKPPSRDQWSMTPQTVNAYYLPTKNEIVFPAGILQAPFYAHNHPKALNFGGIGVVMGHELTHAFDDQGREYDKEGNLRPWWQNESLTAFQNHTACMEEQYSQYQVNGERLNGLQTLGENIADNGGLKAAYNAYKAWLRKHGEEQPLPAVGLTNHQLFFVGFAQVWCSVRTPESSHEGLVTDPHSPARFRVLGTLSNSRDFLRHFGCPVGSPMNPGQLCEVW
UniProt P02802: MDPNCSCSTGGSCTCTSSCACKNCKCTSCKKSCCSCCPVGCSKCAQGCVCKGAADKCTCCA
UniProt P08551: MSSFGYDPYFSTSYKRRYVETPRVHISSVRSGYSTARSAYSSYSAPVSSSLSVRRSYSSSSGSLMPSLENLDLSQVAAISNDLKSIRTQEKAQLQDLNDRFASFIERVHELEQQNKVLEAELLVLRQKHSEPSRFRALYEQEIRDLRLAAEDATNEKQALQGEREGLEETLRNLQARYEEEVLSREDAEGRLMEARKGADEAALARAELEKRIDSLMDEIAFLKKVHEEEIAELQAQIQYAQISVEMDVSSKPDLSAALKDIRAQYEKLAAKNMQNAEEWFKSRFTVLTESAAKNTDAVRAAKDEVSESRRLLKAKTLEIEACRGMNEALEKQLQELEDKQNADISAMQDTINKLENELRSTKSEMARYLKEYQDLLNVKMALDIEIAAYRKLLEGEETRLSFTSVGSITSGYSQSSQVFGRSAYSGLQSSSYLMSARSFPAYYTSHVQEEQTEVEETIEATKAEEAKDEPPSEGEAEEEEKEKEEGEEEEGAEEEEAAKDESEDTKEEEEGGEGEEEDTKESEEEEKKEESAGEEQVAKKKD
UniProt P11152: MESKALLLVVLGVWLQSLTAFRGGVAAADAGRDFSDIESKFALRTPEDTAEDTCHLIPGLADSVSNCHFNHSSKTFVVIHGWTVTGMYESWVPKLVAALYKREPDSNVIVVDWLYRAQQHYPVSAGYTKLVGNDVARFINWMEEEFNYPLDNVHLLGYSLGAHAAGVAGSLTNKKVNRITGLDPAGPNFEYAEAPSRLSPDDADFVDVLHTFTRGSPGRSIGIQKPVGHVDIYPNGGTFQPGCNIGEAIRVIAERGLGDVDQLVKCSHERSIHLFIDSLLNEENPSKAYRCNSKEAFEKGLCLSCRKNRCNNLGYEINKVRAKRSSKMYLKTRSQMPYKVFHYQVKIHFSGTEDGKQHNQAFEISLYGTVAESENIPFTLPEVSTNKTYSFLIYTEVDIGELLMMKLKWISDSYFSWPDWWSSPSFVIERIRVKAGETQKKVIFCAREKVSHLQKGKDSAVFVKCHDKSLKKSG
UniProt P0DJE0: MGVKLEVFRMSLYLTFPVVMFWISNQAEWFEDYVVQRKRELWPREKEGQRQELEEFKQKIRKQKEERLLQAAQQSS
UniProt P08043: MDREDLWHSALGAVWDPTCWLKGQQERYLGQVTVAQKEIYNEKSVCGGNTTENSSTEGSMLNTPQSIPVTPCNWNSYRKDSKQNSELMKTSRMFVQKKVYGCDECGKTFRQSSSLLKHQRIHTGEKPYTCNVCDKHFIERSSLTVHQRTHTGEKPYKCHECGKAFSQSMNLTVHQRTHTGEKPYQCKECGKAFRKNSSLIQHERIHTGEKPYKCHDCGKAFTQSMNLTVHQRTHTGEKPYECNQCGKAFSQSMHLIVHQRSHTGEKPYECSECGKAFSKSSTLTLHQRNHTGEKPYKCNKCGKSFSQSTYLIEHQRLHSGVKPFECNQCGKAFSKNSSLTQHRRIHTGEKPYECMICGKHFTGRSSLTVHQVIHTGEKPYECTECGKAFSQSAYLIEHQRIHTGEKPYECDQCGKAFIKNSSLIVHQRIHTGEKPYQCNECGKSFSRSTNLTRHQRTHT
UniProt P10400: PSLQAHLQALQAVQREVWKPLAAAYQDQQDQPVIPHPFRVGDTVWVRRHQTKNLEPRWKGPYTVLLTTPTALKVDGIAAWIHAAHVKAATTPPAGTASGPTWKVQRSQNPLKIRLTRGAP
UniProt P02762: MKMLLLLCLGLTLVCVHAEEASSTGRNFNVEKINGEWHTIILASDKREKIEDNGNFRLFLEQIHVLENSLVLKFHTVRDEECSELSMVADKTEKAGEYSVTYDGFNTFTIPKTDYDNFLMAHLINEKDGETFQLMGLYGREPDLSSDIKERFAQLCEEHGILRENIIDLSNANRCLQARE

compound: CN[C@@H]1C[C@H]2O[C@@](C)([C@@H]1OC)n1c3ccccc3c3c4c(c5c6ccccc6n2c5c31)C(=O)NC4 [staurosporine]; experiment: log2 fold change of tryptic peptide abundance, ligand vs vehicle (limited proteolysis) (log2 ratio); higher = more trypsin-susceptible (destabilized); settings: ligand concentration: 20 uM; sample: mouse liver crude lysate; replicate design: treated separately

Question: For “UniProt P11679 (peptide sequence: ASLEAAIADAEQRGEMAIK, peptide start residue: 335)”, which log2 fold change is on record?
Answer: -0.305

Question: With “UniProt O88908 (peptide sequence: QDRPLPSAAPDSTSK, peptide start residue: 77)” as the target, how does the log2 fold change read?
Answer: 0.19

Question: For “UniProt P11859 (peptide sequence: LTLPQLEIR, peptide start residue: 370)”, which log2 fold change is on record?
Answer: 0.173

Question: How did the log2 fold change turn out when “UniProt P14115 (peptide sequence: INFDKYHPGYFGKVGMR, peptide start residue: 43)” was run?
Answer: -0.553

Question: Which log2 fold change does the source give for “UniProt P10648 (peptide sequence: SHGQDYLVGNR, peptide start residue: 142)” here?
Answer: 0.131

Question: How did the log2 fold change turn out when “UniProt P02798 (peptide sequence: KSCCSCCPVGCAK, peptide start residue: 31)” was run?
Answer: 0.0182

Question: How did the log2 fold change turn out when “UniProt P12025 (peptide sequence: EGTCGAQTQR, peptide start residue: 55)” was run?
Answer: -0.519

Question: Which log2 fold change does the source give for “UniProt P01029 (peptide sequence: RAPHIQLVAQSPWLRNTAFK, peptide start residue: 102)” here?
Answer: 0.434

Question: Which log2 fold change does the source give for “UniProt O89114 (peptide sequence: FGFNGLSR, peptide start residue: 144)” here?
Answer: -0.166

Question: How did the log2 fold change turn out when “UniProt P0C8B4 (peptide sequence: TNSDGPSAK, peptide start residue: 84)” was run?
Answer: -0.0621

Question: Which log2 fold change does the source give for “UniProt P09405 (peptide sequence: SVSLYYTGEKGQR, peptide start residue: 460)” here?
Answer: -0.239

Question: Which log2 fold change does the source give for “UniProt P0DPD9 (peptide sequence: TPVSPPELPEKNFQYR, peptide start residue: 6)” here?
Answer: 0.229

Question: For “UniProt P02802 (peptide sequence: CAQGCVCK, peptide start residue: 44)”, which log2 fold change is on record?
Answer: 0.0596

Question: Which log2 fold change does the source give for “UniProt P07309 (peptide sequence: TAESGELHGLTTDEKFVEGVYR, peptide start residue: 69)” here?
Answer: -0.235

Question: Which log2 fold change does the source give for “UniProt P08551 (peptide sequence: LAAEDATNEK, peptide start residue: 148)” here?
Answer: 0.582

Question: How did the log2 fold change turn out when “UniProt P05063 (peptide sequence: GILAADESVGSMAK, peptide start residue: 29)” was run?
Answer: -0.238

Question: How did the log2 fold change turn out when “UniProt P11152 (peptide sequence: DFSDIESK, peptide start residue: 33)” was run?
Answer: -0.296

Question: With “UniProt P09055 (peptide sequence: SAVTTVVNPK, peptide start residue: 785)” as the target, how does the log2 fold change read?
Answer: -0.139

Question: How did the log2 fold change turn out when “UniProt P0DJE0 (peptide sequence: QELEEFK, peptide start residue: 51)” was run?
Answer: -0.178

Question: For “UniProt P08043 (peptide sequence: THTGEKPYECNQCGK, peptide start residue: 233)”, which log2 fold change is on record?
Answer: 0.144

Question: With “UniProt P09041 (peptide sequence: FHVEEEGK, peptide start residue: 124)” as the target, how does the log2 fold change read?
Answer: -0.124

Question: Which log2 fold change does the source give for “UniProt P10400 (peptide sequence: VGDTVWVR, peptide start residue: 40)” here?
Answer: 0.626

Question: How did the log2 fold change turn out when “UniProt P08103 (peptide sequence: IIEDNEYTAR, peptide start residue: 403)” was run?
Answer: -0.22

Question: Which log2 fold change does the source give for “UniProt O88990 (peptide sequence: ALDFIASK, peptide start residue: 116)” here?
Answer: -0.158

Question: Which log2 fold change does the source give for “UniProt P0C0A3 (peptide sequence: MHQVMSIEEVER, peptide start residue: 114)” here?
Answer: -0.109

Question: With “UniProt P0DOV2 (peptide sequence: KIMREEETGVK, peptide start residue: 157)” as the target, how does the log2 fold change read?
Answer: 0.613

Question: With “UniProt P02762 (peptide sequence: ENIIDLSNANRCLQARE, peptide start residue: 164)” as the target, how does the log2 fold change read?
Answer: 0.198
